The target in assay [1] is T1, PTP1B-D181A-PafA-Myc (iPup Jurkat) (UniProt P18031).
T1 sequence: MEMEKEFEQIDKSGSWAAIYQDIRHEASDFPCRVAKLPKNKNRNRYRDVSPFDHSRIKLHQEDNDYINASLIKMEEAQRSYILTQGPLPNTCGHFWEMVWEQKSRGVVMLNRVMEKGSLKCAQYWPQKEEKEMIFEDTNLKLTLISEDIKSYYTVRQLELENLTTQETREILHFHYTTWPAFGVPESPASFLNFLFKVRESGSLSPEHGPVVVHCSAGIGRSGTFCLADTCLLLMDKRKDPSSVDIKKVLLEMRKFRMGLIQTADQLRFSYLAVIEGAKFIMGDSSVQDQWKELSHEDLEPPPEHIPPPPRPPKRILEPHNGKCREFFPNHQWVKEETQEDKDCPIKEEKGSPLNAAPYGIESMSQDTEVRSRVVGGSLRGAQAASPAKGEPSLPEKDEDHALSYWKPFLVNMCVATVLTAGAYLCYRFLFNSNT
The assay is described as follows: proximity labelling.

In assay [2] the target is SHP2-D425A-PafA-Myc (iPup Jurkat) (UniProt Q06124). The assay is described as follows: proximity labelling.

Experimental findings from paper doi:10.1101/2021.12.21.473566 are described below.

No constants are given. Whether binding was seen depends on the method and setting. In cells and extracts the contact can be indirect. These calls come from enrichment with a bait or labelling near it, and not all partners need be listed. For some assays here: A no says only that the protein was not detected with the bait. For some assays here: Sequences can lack the tags named with a protein.

B1: THEMIS (endogenous, Jurkat) (protein, UniProt Q8N1K5 1-641)
chain: MALSLEEFVHSLDLRTLPRVLEIQAGIYLEGSIYEMFGNECCFSTGEVIKITGLKVKKIIAEICEQIEGCESLQPFELPMNFPGLFKIVADKTPYLTMEEITRTIHIGPSRLGHPCFYHQKDIKLENLIIKQGEQIMLNSVEEIDGEIMVSCAVARNHQTHSFNLPLSQEGEFYECEDERIYTLKEIVEWKIPKNRTRTVNLTDFSNKWDSTNPFPKDFYGTLILKPVYEIQGVMKFRKDIIRILPSLDVEVKDITDSYDANWFLQLLSTEDLFEMTSKEFPIVTEVIEAPEGNHLPQSILQPGKTIVIHKKYQASRILASEIRSNFPKRHFLIPTSYKGKFKRRPREFPTAYDLEIAKSEKEPLHVVATKAFHSPHDKLSSVSVGDQFLVHQSETTEVLCEGIKKVVNVLACEKILKKSYEAALLPLYMEGGFVEVIHDKKQYPISELCKQFRLPFNVKVSVRDLSIEEDVLAATPGLQLEEDITDSYLLISDFANPTECWEIPVGRLNMTVQLVSNFSRDAEPFLVRTLVEEITEEQYYMMRRYESSASHPPPRPPKHPSVEETKLTLLTLAEERTVDLPKSPKRHHVDITKKLHPNQAGLDSKVLIGSQNDLVDEEKERSNRGATAIAETFKNEKHQK
Consider B1, for which the results for the binding entry in assay [1] and in assay [2] were “no binding” and “binds”, respectively.
